According to patent US8889731B2, “Compounds, compositions and methods for repelling blood-feeding arthropods and deterring their landing and feeding” (Contech Enterprises Inc., priority 2007, dated 2014):
Some results were stated once for a whole list of compounds, not compound by compound.

System: male or female Aedes aegypti antennae
Test: Coupled gas chromatographic-electroantennographic detection (GC-EAD) of garlic oil extract
Description: FIG. 1 illustrates flame ionization detector (FID) and electroantennograhic detector (EAD: male or female Aedes aegypti antennae) responses to aliquots of the low boiling temperature portion of garlic oil extract. Chromatography: Hewlett Packard (HP) gas chromatograph equipped with a fused silica column (30 m×0.32 mm ID) coated with DB-5; injector and detector temperature: 250° C.; temperature program: 50° C.
Aliquots of garlic oil extracts were then subjected to coupled gas chromatographic-electroantennographic detection (GC-EAD) analysis. Fourteen components (10 shown in FIG. 1) elicited responses from female or male mosquito antennae. Some of these components were isolated by high-performance liquid chromatography (HPLC) for identification by nuclear magnetic resonance spectroscopy (NMR). Other components were identified (compounds 11-14 in TABLE 2) by coupled GC-mass spectrometry and by retention index calculations. […] Four of the 10 components in FIG. 1 were tentatively identified by comparing their mass spectra and retention indices with those reported in the literature (Block et al. 1998).
Components with high molecular weight (>250 daltons) are advantageous in that they: 1) dissipate slowly from treated surfaces; 2) provide long-lasting protection against mosquitoes and 3) convey little, if any, offensive smell. […]

C=CCSSCC=C [Compound 3, diallyl disulfide]
electroantennographic (EAD) response of mosquito antennae: elicited responses from antennae
